Among all 320,000 compounds or so, about 2,100 (0.66%) were called active. This list was built around the results that the source calls inconclusive (neither active nor inactive); the mix of calls is not that of the screen. Calls come from the whole dose curve; as a rule, active = well fitted inhibition curve with a large enough effect in the signal ratio, with a control signal flat (not every such curve was filed as active); inconclusive = small, poorly fitted or top-dose-only effect, or effect the other way, or a change in a side signal; inactive = flat fitted curve, though single readings scatter; the % refers to the signal ratio. Potencies beside an inconclusive call are fits to weak or partial responses and may not hold up.
Test: qHTS Assay for Lipid Storage Modulators in Drosophila S3 Cells
Details: BODIPY lipid droplet fluorescence, 18-24 h, cells fed with added oleic acid; lipid storage change, negative = inhibition: at 46.1 µM (top of the series) unless noted
Outline: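 Drosophila S3 cells loaded with oleic acid (400 uM, as added) and compounds at several concentrations; lipid droplets imaged by 488-nm laser-scanning cytometry, 500–530 nm intensity and object ratio to cell channel. Percent activity normalized to 20 uM Triacsin C.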
% is set by controls: 0 for no effect and ±100 for the full control effect; potency is the fitted concentration of half-maximal effect.

Row | SMILES | lipid storage change, negative = inhibition | Potency | outcome
1 | CN(C)S(=O)(=O)c1cccc(NC(=O)c2ccc(-n3cncn3)c([N+](=O)[O-])c2)c1 | inconclusive: 0.824% |  | 
2 | CC1=C(C#N)C(Nc2ccc(Cl)cn2)(C(F)(F)F)C(=O)N1 (configuration not stated) | inconclusive: -137% |  | 
3 | COc1ccc(/C=C(/NC(=O)c2ccccc2)C(=O)N/N=C/c2ccncc2)c(OC)c1 |  | inconclusive: 2.91 µM [activator, full curve] | 
4 | CN(C)c1ccc(/C=N/NC(=O)c2ccc(CN3C(=O)c4cccc5cccc3c45)cc2)cc1 | inactive: 13% |  | 
5 | CS(=O)(=O)Cc1cccc(C(=O)NN(c2ccccc2)c2ccccc2)c1 | inconclusive: 471% |  | 
6 | NC1=NC(=O)/C(=C\c2ccc(-c3ccc(Cl)cc3)o2)S1 | inconclusive: -23.5% |  | 
7 | Nc1ccc(S(=O)(=O)Nc2nc(-c3ccccc3)cc(-c3ccccc3)n2)cc1 | inconclusive: 35.1% |  | 
8 | CCN1CCN(C(c2cccnc2)c2c(NC(=O)c3ccco3)sc(C)c2C)CC1 (configuration not stated) |  | active: 8.2 µM | 
9 | COc1cccc(CNCCSc2nnnn2C)c1 | inconclusive: 10.2% |  | 
10 | N#CCCCSc1nnnn1-c1cccc(Cl)c1 | inconclusive: -5.46% |  | 
11 | CCN(C(=O)CSc1nnc(-c2ccc(C)cc2)n1N)c1c(N)n(Cc2ccccc2)c(=O)[nH]c1=O | inconclusive |  | 
12 | CCOC(=O)c1cnc2sc3c(n2c1=O)CCCC3 |  | inconclusive: 29.1 µM [falling, single point] | 
13 | CCOCCOC(=O)C(C)Oc1ccc(Oc2nc(Cl)ccc2Cl)cc1 (configuration not stated) | inconclusive: 24.7% |  | 
14 | O=C1COc2ccc(C(=O)COC(=O)c3nc(Cl)ccc3Cl)cc2N1 |  | inconclusive: 6.51 µM [falling, single point] | 
15 | Cc1ccc(Cl)cc1N1CCN(C(=O)CSc2nnc3n2C(C)(C)Cc2ccccc2-3)CC1 | inconclusive: -19.2% |  | 
16 | Cc1ccc([N+](=O)[O-])cc1NC(=O)c1cccs1 |  | inconclusive: 0.651 µM [cytotoxic, full curve, poor fit] | 
17 | O=C(COC(=O)c1nc(Cl)ccc1Cl)c1ccc[nH]1 | inconclusive: 47.7% |  | 
18 | Cc1cc(Cl)c(S(=O)(=O)NC(C(=O)O)C(C)C)cc1OCC(=O)NC1CCCCC1 (configuration not stated) | inconclusive: 185% |  | 
19 | Cc1ccc(S(=O)(=O)N2CCOCC2)cc1NC(=O)COc1ccc2c(C)cc(=O)oc2c1 |  |  | inactive [at 46.1 µM]
20 | Cc1cccc(N2CCN(S(=O)(=O)c3ccc4c(c3)CCCN4C(=O)C3CCC3)CC2)c1C |  | inconclusive: 1.84 µM [activator, partial curve] | 
21 | O=C(COC(=O)c1cccc([N+](=O)[O-])c1)Nc1ccc(Cl)cn1 | inconclusive: 30.4% |  | 
22 | Cc1cccc(-n2c(C)nc3cc(C(=O)NCc4ccc5c(c4)OCO5)ccc32)c1 | inconclusive: 27.9% |  | 
23 | CCOc1ccc(C(=O)NCC(=O)N2CCc3ccccc3C2)cc1OCC | inconclusive: -0.0015% |  | 
24 | Cc1nn(-c2nc3ccccc3n2Cc2ccccc2)c2c1C(=O)CC(C)(C)C2 | inconclusive: 12.3% |  | 
25 | CCCc1nnc(N2C(=O)c3cccc4cccc(c34)C2=O)s1 |  | inconclusive: 6.51 µM [activator, partial curve] | 
26 | CC(C)N1C/C(=C/c2ccsc2)C(=O)/C(=C/c2ccsc2)C1 |  | active: 14.6 µM | 

Molecules from the list above containing a cyano group, in the order listed:
Row | SMILES | lipid storage change, negative = inhibition | Potency | outcome
2 | CC1=C(C#N)C(Nc2ccc(Cl)cn2)(C(F)(F)F)C(=O)N1 (configuration not stated) | inconclusive: -137% |  | 
10 | N#CCCCSc1nnnn1-c1cccc(Cl)c1 | inconclusive: -5.46% |  | 

Further results.

Row | SMILES | lipid storage change, negative = inhibition | Potency | outcome
27 | CCOC(=O)c1nnn(-c2nonc2N)c1-c1ccc(Br)cc1 | inconclusive: -11.7% |  | 
28 | Cc1[nH]c2ccc(-c3n[nH]c(=S)n3C)cc2c1C |  | inconclusive: 1.3 µM [activator, full curve] | 
29 | Cc1sc2nc(SCC(=O)N(C)c3ccccc3)n(C)c(=O)c2c1C |  | inconclusive: 0.13 µM [falling, full curve, poor fit] | 
30 | COC(=O)c1cc(S(=O)(=O)N2CCN(c3ccc(C(C)=O)cc3)CC2)cn1C | inconclusive: -5.23% |  | 
31 | COC(=O)Cc1ccc(N(Cc2ccccc2F)S(=O)(=O)c2ccc(Br)cc2)cc1 |  | inconclusive: 16.4 µM [activator, partial curve] | 
32 | Cc1ccc(Cn2nnc3c(=O)[nH]c(C4CCN(S(=O)(=O)/C=C/c5ccccc5)CC4)nc32)cc1 | inconclusive: -141% |  | 
33 | Cc1ccc(S(=O)(=O)N2CCCCC2)cc1C(=O)NCCCN1CCOCC1 | inconclusive: 65.1% |  | 
34 | CC(C)(C)NC[C@H](O)COc1nsnc1N1CCOCC1 | inconclusive: -3.61% |  | 
35 | O=C(NCc1ccc2c(c1)OCO2)c1ccc(CN2CCOCC2)cc1 | inconclusive: 86.8% |  | 
36 | Cc1ccc(/C=C2\SC(=S)N(CCC(=O)N3CCCCC3)C2=O)cc1 | inconclusive: -20% |  | 
37 | CCN1CCN(c2ncc(C(=O)Nc3c(F)cc(F)cc3Br)c3ccccc23)CC1 | inconclusive: 55.6% |  | 
38 | Cc1cc(C)nc(N2CCN(c3ccc(F)cc3)CC2)n1 | inconclusive: -64.1% |  | 
39 | Cc1ccc(S(=O)(=O)c2cn(C)c3cc(N4CCN(C)CC4)c(F)cc3c2=O)cc1 |  | inconclusive: 6.51 µM [falling, single point] | 
40 | COCc1c(C(=O)NCCOc2ccc(Cl)cc2)oc2ccccc12 | inconclusive: 22.8% |  | 
41 | CC1CN(S(=O)(=O)c2cccc(C(=O)NCc3ccco3)c2)CC(C)O1 (configuration not stated) | inconclusive: -72.5% |  | 
42 | CCc1nc2cc(CC(=O)O)ccc2o1 | inconclusive: 12.9% |  | 
43 | CCCCn1c(/C=N/Nc2nc3ccccc3[nH]2)nc2ccccc21 |  | inconclusive: 8.2 µM [falling, partial curve] | 
44 | O=C(Nc1ccccn1)c1sc2cc([N+](=O)[O-])ccc2c1Cl |  | inconclusive: 3.66 µM [falling, single point] | 
45 | CN(CC(=O)Nc1ccccc1C(F)(F)F)C(=O)c1ccc2c(=O)n3c(nc2c1)CCC3 |  | inconclusive: 25.9 µM [activator, single point] | 
46 | O=C(Nc1cc(Cl)ccn1)C1CCN(S(=O)(=O)c2cccs2)CC1 | inconclusive: -1.55% |  | 
47 | COc1ccc(-n2ccc(=O)c3c2CCCC3=O)cc1 | inconclusive: 7.56% |  | 
48 | O=C(CCCCCn1c(=S)[nH]c2ccc(N3CCOCC3)cc2c1=O)NCc1ccc2c(c1)OCO2 |  | inconclusive: 32.6 µM [falling, single point] | 
49 | COc1ccc(CCCNC(=O)C2CCC(=O)N(CCc3cccc(F)c3)C2)cc1 (configuration not stated) | inconclusive: -25.3% |  | 
50 | CCCCCCNC(=O)C(C#N)c1nc2ccccc2nc1N1CCOCC1 (configuration not stated) | inconclusive: 2.94% |  | 
51 | Cc1ccc(C)c(OCCC(=O)OCC(=O)NC(=O)NC2CCCC2)c1 | inconclusive: 162% |  | 
52 | O=C(NCc1ccccn1)C(=O)NCC1OCCCN1S(=O)(=O)c1cc(F)ccc1F (configuration not stated) | inconclusive: 16.2% |  | 

Row | SMILES | lipid storage change, negative = inhibition | Potency | outcome
53 | CN(CC(=O)Nc1cccc(F)c1)C(=O)Cn1c(=O)cnc2ccccc21 | inconclusive |  | 
54 | CCCCCCCNC(=O)C1(CC2CC(c3cccc(Br)c3)=NO2)CCN(C(=O)OC(C)(C)C)CC1 (configuration not stated) | inconclusive: -79.2% |  | 
55 | COc1ccc(C2C(C(=O)N3CCCC3)c3cc(OC)c(OC)cc3C(=O)N2C)cc1OC (configuration not stated) |  | inconclusive: 3.66 µM [falling, single point] | 
56 | Cc1ccc(-c2c(C)sc(=NC(=O)c3ccco3)n2C)cc1 | inconclusive: -9.07% |  | 
57 | O=C(Cn1nnc(-c2ccccc2)n1)NCc1ccco1 |  | inconclusive: 6.51 µM [falling, partial curve, poor fit] | 
58 | CC(C)(C)Nc1c(-c2ccc(O)cc2)nc2ccc(Cl)cn12 | inactive: -6.34% |  | 
59 | N#Cc1c(-c2ccccc2)cc(-c2ccccc2)nc1SCc1nnc(-c2ccccc2)o1 | inconclusive: 24.4% |  | 
60 | COc1ccccc1CNC(=O)CN1C(=O)CSc2ccc(S(=O)(=O)N3CCCC3)cc21 | inconclusive: -8.28% |  | 
61 | Cc1csc(NC(=O)c2cc3ccccc3o2)n1 | inconclusive: 12.7% |  | 
62 | CN(CC(=O)Nc1ccc(F)cc1)C(=O)COC(=O)/C=C/c1ccccc1[N+](=O)[O-] | inconclusive: -5.94% |  | 
63 | COC(=O)C(C)Sc1ncnc2c1nnn2-c1ccc(F)cc1 (configuration not stated) | inconclusive: -1.11% |  | 
64 | CN(C)c1ccc(C(=O)N2CCCC(CCC(=O)N3CCN(c4ccccn4)CC3)C2)cc1 (configuration not stated) | inactive: -21.3% |  | 
65 | CN(c1ccccc1)S(=O)(=O)c1ccc(C(=O)Nc2ccncc2)cc1 | inconclusive: 31.2% |  | 
66 | CC(Sc1nnc(-c2cccs2)n1N)C(=O)NCC1CCCO1 (configuration not stated) | inconclusive: -7.2% |  | 
67 | Cc1cc(C)cc(NC(=O)c2nnn(Cc3cc(C)ccc3C)c2N)c1 | inconclusive: 18.5% |  | 
68 | O=C(COc1nc2ccccc2nc1N1CCOCC1)N1CCc2ccccc21 | inconclusive: 46.2% |  | 
69 | C#Cc1ccc(C(=O)Nc2cc(C(N)=O)ccc2N2CCOCC2)cc1 | inconclusive: 18.5% |  | 
70 | O=c1[nH]cccc1-c1nc2ccccc2n1Cc1cccc(Cl)c1 | inconclusive: 22.9% |  | 
71 | Cc1cccc(NC(=O)c2cnn3ccccc23)c1C | inconclusive: 19.4% |  | 
72 | Cc1ccc(S(=O)(=O)NCC2COc3ccccc3O2)cc1 (configuration not stated) | inconclusive: -0.763% |  | 
73 | COc1ccc(NC(=O)CN(C)C(=O)c2cccc(S(=O)(=O)N3CC4(C)CC3CC(C)(C)C4)c2)cc1 (configuration not stated) |  | inconclusive: 29.1 µM [rising, single point] | 
74 | C/C(=N\O)c1ccccc1C(=O)O |  | inconclusive: 29.1 µM [falling, single point] | 
75 | COc1ccc(N(C(=O)Cc2cccs2)C(C(=O)NC2CCCC2)c2ccncc2)cc1 (configuration not stated) | inconclusive: -15.1% |  | 
76 | CC1(O)CC(c2ccc(Cl)cc2)=NN1C(=O)c1ccc(Cl)cc1 (configuration not stated) |  | inconclusive: 29.1 µM [falling, single point] | 
77 | CC1CCN(S(=O)(=O)c2ccc(NC(=O)C3CC(=O)N(c4ccccc4)C3)cc2)CC1 (configuration not stated) |  | inconclusive: 0.13 µM [falling, full curve, poor fit] | 

Taken from above:
Entry for `COc1ccc(C2C(C(=O)N3CCCC3)c3cc(OC)c(OC)cc3C(=O)N2C)cc1OC` (configuration not stated) under Potency: inconclusive: 3.66 µM [falling, single point]
Entry for `N#Cc1c(-c2ccccc2)cc(-c2ccccc2)nc1SCc1nnc(-c2ccccc2)o1` under lipid storage change, negative = inhibition: inconclusive: 24.4%
